# Measured values as given in the supplement of paper PMC8728848.
# The list shows a part of the results.
# B1: CRT-1 (Homo sapiens), P27797 (protein)
# chain: MLLSVPLLLGLLGLAVAEPAVYFKEQFLDGDGWTSRWIESKHKSDFGKFVLSSGKFYGDEEKDKGLQTSQDARFYALSASFEPFSNKGQTLVVQFTVKHEQNIDCGGGYVKLFPNSLDQTDMHGDSEYNIMFGPDICGPGTKKVHVIFNYKGKNVLINKDIRCKDDEFTHLYTLIVRPDNTYEVKIDNSQVESGSLEDDWDFLPPKKIKDPDASKPEDWDERAKIDDPTDSKPEDWDKPEHIPDPDAKKPEDWDEEMDGEWEPPVIQNPEYKGEWKPRQIDNPDYKGTWIHPEIDNPEYSPDPSIYAYDNFGVLGLDLWQVKSGTIFDNFLITNDEAYAEEFGNETWGVTKAAEKQMKDKQDEEQRLKEEEEDKKRKEEEEAEDKEDDEDKDEDEEDEEDKEEDEEEDVPGQAKDEL
# Legend:
# Experiment in all cases: glycan array binding signal (z-score within array); higher = stronger binding
# Details in all cases: glycan notation: IUPAC condensed, linker removed
# [1] = target: GalNAc(a1-3)GalNAc(a1-3)Gal(a1-4)Gal(b1-4)GlcNAc
# Outline: (§1)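 The binding signal is a Z-score computed within each array and averaged over linkers. Arrays of the same protein sequence at different concentrations or buffers were also averaged together. Data originate from 3228 arrays in the Consortium for Functional Glycomics database, kept only where the protein sequence was available.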
# [2] = target: GalNAc(a1-3)GalNAc(b1-3)Gal(a1-4)Gal(b1-4)Glc
# Outline: as §1
# [3] = target: GalNAc(a1-3)GalNAc(b1-3)Gal(a1-4)Gal(b1-4)GlcNAc
# Outline: as §1
# GalNAc(b1-3)Gal = target: GalNAc(b1-3)Gal
# Outline: as §1
# [4] = target: GalNAc(b1-3)Gal(a1-4)Gal(b1-4)GlcNAc
# Outline: as §1
# [5] = target: GalNAc(b1-3)Gal(a1-4)Gal(b1-4)GlcNAc(b1-3)Gal(b1-4)Glc
# Outline: as §1
# [6] = target: GalNAc(b1-3)Gal(a1-6)Gal(b1-4)Glc
# Outline: as §1
# GalNAc(b1-3)GalNAc = target: GalNAc(b1-3)GalNAc
# Outline: as §1
# GalNAc(b1-3)GlcNAc = target: GalNAc(b1-3)GlcNAc
# Outline: as §1
# GalNAc(b1-4)Gal(b1-4)Glc = target: GalNAc(b1-4)Gal(b1-4)Glc
# Outline: as §1
# GalNAc(b1-4)GlcNAc = target: GalNAc(b1-4)GlcNAc
# Outline: as §1
# [7] = target: GalNAc(b1-4)GlcNAc(b1-2)Man
# Outline: as §1
# [8] = target: GalNAc(b1-4)GlcNAc(b1-2)Man(a1-3)[GalNAc(b1-4)GlcNAc(b1-2)Man(a1-6)]Man(b1-4)GlcNAc(b1-4)GlcNAc
# Outline: as §1
# [9] = target: GalNAc(b1-4)GlcNAc(b1-3)GalNAc(b1-4)GlcNAc
# Outline: as §1
# GalNAc(b1-4)GlcNAc6S = target: GalNAc(b1-4)GlcNAc6S
# Outline: as §1
# GalNAc(b1-6)GalNAc = target: GalNAc(b1-6)GalNAc
# Outline: as §1
# GalNAc3S(b1-4)GlcNAc = target: GalNAc3S(b1-4)GlcNAc
# Outline: as §1
# GalNAc3S(b1-4)GlcNAc3S = target: GalNAc3S(b1-4)GlcNAc3S
# Outline: as §1
# [10] = target: GalNAc3S(b1-4)[Fuc(a1-3)]GlcNAc
# Outline: as §1
# GalNAc4S6S(b1-4)GlcNAc = target: GalNAc4S6S(b1-4)GlcNAc
# Outline: as §1
# GalNAc6S(b1-4)GlcNAc = target: GalNAc6S(b1-4)GlcNAc
# Outline: as §1
# Glc(a1-4)Glc = target: Glc(a1-4)Glc
# Outline: as §1
# [11] = target: Glc(a1-4)Glc(a1-4)Glc(a1-4)Glc
# Outline: as §1
# Glc(a1-6)Glc(a1-6)Glc = target: Glc(a1-6)Glc(a1-6)Glc
# Outline: as §1
# [12] = target: Glc(a1-6)Glc(a1-6)Glc(a1-6)Glc
# Outline: as §1
# Glc(b1-4)Glc = target: Glc(b1-4)Glc
# Outline: as §1
# Glc(b1-6)Glc = target: Glc(b1-6)Glc
# Outline: as §1
# GlcA(b1-3)Gal = target: GlcA(b1-3)Gal
# Outline: as §1
# GlcA(b1-3)GlcNAc = target: GlcA(b1-3)GlcNAc
# Outline: as §1
# GlcA(b1-6)Gal = target: GlcA(b1-6)Gal
# Outline: as §1
# [13] = target: GlcA3S(b1-3)Gal(b1-4)GlcNAc(b1-2)Man
# Outline: as §1
# [14] = target: GlcA3S(b1-3)Gal(b1-4)GlcNAc(b1-3)Gal(b1-4)Glc
# Outline: as §1
# [15] = target: GlcNAc(a1-3)Gal(b1-4)GlcNAc
# Outline: as §1
# [16] = target: GlcNAc(a1-4)Gal(b1-3)GlcNAc
# Outline: as §1
# [17] = target: GlcNAc(a1-4)Gal(b1-4)GalNAc
# Outline: as §1
# [18] = target: GlcNAc(a1-4)Gal(b1-4)GlcNAc
# Outline: as §1
# [19] = target: GlcNAc(a1-4)Gal(b1-4)GlcNAc(b1-3)Gal(b1-4)Glc
# Outline: as §1
# [20] = target: GlcNAc(a1-4)Gal(b1-4)GlcNAc(b1-3)Gal(b1-4)GlcNAc
# Outline: as §1
binder,measurement,setting,value
B1,glycan array binding signal (z-score),[1],-0.139
same,glycan array binding signal (z-score),[2],-0.706
same,glycan array binding signal (z-score),[3],0.706
same,glycan array binding signal (z-score),GalNAc(b1-3)Gal,-0.401
same,glycan array binding signal (z-score),[4],0.487
same,glycan array binding signal (z-score),[5],0.488
same,glycan array binding signal (z-score),[6],-0.568
same,glycan array binding signal (z-score),GalNAc(b1-3)GalNAc,0.025
same,glycan array binding signal (z-score),GalNAc(b1-3)GlcNAc,0.853
same,glycan array binding signal (z-score),GalNAc(b1-4)Gal(b1-4)Glc,0.378
same,glycan array binding signal (z-score),GalNAc(b1-4)GlcNAc,0.222
same,glycan array binding signal (z-score),[7],-0.75
same,glycan array binding signal (z-score),[8],0.7
same,glycan array binding signal (z-score),[9],0.133
same,glycan array binding signal (z-score),GalNAc(b1-4)GlcNAc6S,-0.519
same,glycan array binding signal (z-score),GalNAc(b1-6)GalNAc,0.544
same,glycan array binding signal (z-score),GalNAc3S(b1-4)GlcNAc,-0.071
same,glycan array binding signal (z-score),GalNAc3S(b1-4)GlcNAc3S,1.44
same,glycan array binding signal (z-score),[10],-1.01
same,glycan array binding signal (z-score),GalNAc4S6S(b1-4)GlcNAc,0.262
same,glycan array binding signal (z-score),GalNAc6S(b1-4)GlcNAc,-0.369
same,glycan array binding signal (z-score),Glc(a1-4)Glc,0.327
same,glycan array binding signal (z-score),[11],-0.183
same,glycan array binding signal (z-score),Glc(a1-6)Glc(a1-6)Glc,-0.059
same,glycan array binding signal (z-score),[12],0.137
same,glycan array binding signal (z-score),Glc(b1-4)Glc,0.207
same,glycan array binding signal (z-score),Glc(b1-6)Glc,-0.071
same,glycan array binding signal (z-score),GlcA(b1-3)Gal,-0.203
same,glycan array binding signal (z-score),GlcA(b1-3)GlcNAc,0.602
same,glycan array binding signal (z-score),GlcA(b1-6)Gal,-0.174
same,glycan array binding signal (z-score),[13],-0.719
same,glycan array binding signal (z-score),[14],-0.15
same,glycan array binding signal (z-score),[15],-0.694
same,glycan array binding signal (z-score),[16],0.096
same,glycan array binding signal (z-score),[17],-0.307
same,glycan array binding signal (z-score),[18],-0.256
same,glycan array binding signal (z-score),[19],-0.468
same,glycan array binding signal (z-score),[20],0.476

# A stretch from the list above, for reference:
binder,measurement,setting,value
B1,glycan array binding signal (z-score),[18],-0.256
same,glycan array binding signal (z-score),[19],-0.468
